Patent US7875619B2, “Hetero substituted sodium channel blockers” (Parion Sciences, Inc., priority 2004, dated 2011)
Counter-ions that a name gives are not always drawn. At least one structure is not confirmed: it was looked up by name or label, or the drawing left a doubt.

Molecular target: T1, sodium channel (ENaC), canine bronchial epithelia (Canis lupus familiaris, UniProt A0A8I3MKE6+A0A8I3Q679+Q95165)
T1 construct: endogenous in cells; host or cells: primary canine bronchial epithelial cells cultured at air-liquid interface, mounted in Ussing chambers
T1 sequence (A0A8I3Q679 1-649): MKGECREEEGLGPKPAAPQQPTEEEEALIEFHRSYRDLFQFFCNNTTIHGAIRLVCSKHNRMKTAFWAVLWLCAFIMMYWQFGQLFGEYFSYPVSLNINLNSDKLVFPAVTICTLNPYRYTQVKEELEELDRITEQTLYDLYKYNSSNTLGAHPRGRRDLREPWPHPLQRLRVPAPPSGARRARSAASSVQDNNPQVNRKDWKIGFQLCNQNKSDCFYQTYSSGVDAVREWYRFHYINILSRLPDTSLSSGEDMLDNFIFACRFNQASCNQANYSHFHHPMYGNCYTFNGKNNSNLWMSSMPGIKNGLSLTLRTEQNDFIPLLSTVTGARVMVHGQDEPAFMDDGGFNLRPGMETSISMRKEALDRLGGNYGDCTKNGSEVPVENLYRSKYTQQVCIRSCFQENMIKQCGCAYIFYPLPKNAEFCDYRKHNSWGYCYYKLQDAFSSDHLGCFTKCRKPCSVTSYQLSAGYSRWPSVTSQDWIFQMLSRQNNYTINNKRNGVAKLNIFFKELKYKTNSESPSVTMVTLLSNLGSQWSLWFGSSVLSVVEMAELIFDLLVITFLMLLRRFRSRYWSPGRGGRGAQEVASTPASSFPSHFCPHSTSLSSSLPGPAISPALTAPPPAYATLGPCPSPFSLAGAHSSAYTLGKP
T1 sequence (Q95165 1-641): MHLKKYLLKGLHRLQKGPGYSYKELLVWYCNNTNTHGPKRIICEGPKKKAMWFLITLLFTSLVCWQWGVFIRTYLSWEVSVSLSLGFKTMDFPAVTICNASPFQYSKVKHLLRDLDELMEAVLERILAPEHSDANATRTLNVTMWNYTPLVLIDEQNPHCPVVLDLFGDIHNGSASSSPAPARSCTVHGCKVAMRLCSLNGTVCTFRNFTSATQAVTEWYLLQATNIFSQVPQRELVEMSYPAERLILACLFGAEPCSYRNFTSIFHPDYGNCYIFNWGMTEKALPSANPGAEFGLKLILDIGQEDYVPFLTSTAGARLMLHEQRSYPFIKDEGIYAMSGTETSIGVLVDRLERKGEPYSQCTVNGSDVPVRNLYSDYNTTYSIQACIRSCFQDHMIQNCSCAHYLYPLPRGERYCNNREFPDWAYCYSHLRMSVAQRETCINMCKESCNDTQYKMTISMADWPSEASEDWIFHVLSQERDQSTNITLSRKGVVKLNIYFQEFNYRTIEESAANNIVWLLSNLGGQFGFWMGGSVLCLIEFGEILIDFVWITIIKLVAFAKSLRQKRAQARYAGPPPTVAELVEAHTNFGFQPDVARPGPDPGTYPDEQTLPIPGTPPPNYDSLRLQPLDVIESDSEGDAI
T1 sequence (A0A8I3MKE6 1-646): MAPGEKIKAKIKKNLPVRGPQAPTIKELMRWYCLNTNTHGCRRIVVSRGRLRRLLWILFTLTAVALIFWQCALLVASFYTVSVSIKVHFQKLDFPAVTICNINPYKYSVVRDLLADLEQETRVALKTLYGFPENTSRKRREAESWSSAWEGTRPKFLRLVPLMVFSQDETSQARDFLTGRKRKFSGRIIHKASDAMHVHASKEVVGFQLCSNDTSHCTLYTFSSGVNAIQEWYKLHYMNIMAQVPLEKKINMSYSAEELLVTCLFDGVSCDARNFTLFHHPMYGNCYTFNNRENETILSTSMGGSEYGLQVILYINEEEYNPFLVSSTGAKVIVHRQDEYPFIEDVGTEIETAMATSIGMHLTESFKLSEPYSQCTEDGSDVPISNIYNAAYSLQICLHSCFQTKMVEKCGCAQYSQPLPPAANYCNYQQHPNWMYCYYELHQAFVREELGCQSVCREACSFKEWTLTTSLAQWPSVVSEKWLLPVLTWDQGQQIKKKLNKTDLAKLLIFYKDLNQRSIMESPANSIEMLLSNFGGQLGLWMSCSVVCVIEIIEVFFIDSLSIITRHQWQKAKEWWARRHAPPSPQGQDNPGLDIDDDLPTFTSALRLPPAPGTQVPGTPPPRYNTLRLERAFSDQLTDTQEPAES
Experiment: In vitro measure of sodium channel blocking activity: inhibition of short circuit current (ISC) in airway epithelial monolayers in Ussing chambers
Assay type: cell-based
Conditions: relative potency for PSA 4022 = 100 using EC50 from PSA 4022 in same run, mean of N runs
Description: One assay used to assess mechanism of action and/or potency of the compounds of the present invention involves the determination of lumenal drug inhibition of airway epithelial sodium currents measured under short circuit current (ISC) using airway epithelial monolayers mounted in Ussing chambers. Cells obtained from freshly excised human, dog, sheep or rodent airways are seeded onto porous 0.4 micron Snapwell™ Inserts (CoStar), cultured at air-liquid interface (ALI) conditions in hormonally defined media, and assayed for sodium transport activity (ISC) while bathed in Krebs Bicarbonate Ringer (KBR) in Using chambers. All test drug additions are to the lumenal bath with half-log dose addition protocols (from 1×10^−11 M to 3×10^−5M), and the cumulative change in ISC (inhibition) recorded. All drugs are prepared in dimethyl sulfoxide as stock solutions at a concentration of 1×10^−2 M and stored at −20° C. […] After the maximal concentration (5×10^−5 M) is administered, the lumenal bath is exchanged three times with fresh drug-free KBR solution, and the resultant ISC measured after each wash for approximately 5 minutes in duration. […] All data from the voltage clamps are collected via a computer interface and analyzed off-line.
Dose-effect relationships for all compounds are considered and analyzed by the Prism 3.0 program. […]

SMILES: N=C(N)NCCNc1ccc(CCCCNC(=N)NC(=O)c2nc(Cl)c(N)nc2N)cc1 [PSA 17339, N-(3,5-diamino-6-chloropyrazine-2-carbonyl)-N′-{4-[(2-guanidinoethylamino)phenyl]butyl}guanidine trihydrochloride]
- Fold Amiloride** (PSA 4022 = 100) Mean: 108
